For one compound, EC50 results are on record in publication PMC10747599 (Viruses, 2023).

Usually pEC50 stands for the negative decadic logarithm of the EC50, by convention in mol/L.

The assay concerns SLEV infection in Vero CCL81 cells. In words: microbe, parasite or virus in culture. Conditions: St. Louis encephalitis virus, 72 h. The format is cell-based, St. Louis encephalitis virus (SLEV BeH 355964).

Structures are written as SMILES. pEC50: −log10 of the molar value.

In the case of `CCCCc1oc2ccccc2c1C(=O)c1cc(I)c(OCCN(CC)CC)c(I)c1` [Amiodarone], the negative-log EC50 (pEC50) was 5.34.
